Measurements taken from article doi:10.1101/2020.06.26.173831.
No constants are given. Whether binding was seen depends on the method and setting. In cells and extracts the contact can be indirect. Some binding calls cover weakened binding; strength is not graded here. Tags and fused reporters may be left off the sequences shown.

Key:
[1] = target: T1, GFP-tagged Oac1 (S. cerevisiae) (UniProt P32332); experiment: co-IP
T1 sequence: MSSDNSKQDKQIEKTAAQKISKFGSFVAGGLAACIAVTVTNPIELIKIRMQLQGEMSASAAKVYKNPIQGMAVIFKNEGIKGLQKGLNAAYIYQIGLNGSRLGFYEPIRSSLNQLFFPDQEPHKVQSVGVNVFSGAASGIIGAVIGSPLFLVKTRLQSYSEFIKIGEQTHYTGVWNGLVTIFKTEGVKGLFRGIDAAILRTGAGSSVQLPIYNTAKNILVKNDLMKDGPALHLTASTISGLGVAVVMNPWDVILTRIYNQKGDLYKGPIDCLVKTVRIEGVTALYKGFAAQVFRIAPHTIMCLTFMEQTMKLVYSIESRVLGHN

Get3-GFP (S. cerevisiae) = target: T2, Get3-GFP (S. cerevisiae) (UniProt Q12154); experiment: co-IP
T2 sequence: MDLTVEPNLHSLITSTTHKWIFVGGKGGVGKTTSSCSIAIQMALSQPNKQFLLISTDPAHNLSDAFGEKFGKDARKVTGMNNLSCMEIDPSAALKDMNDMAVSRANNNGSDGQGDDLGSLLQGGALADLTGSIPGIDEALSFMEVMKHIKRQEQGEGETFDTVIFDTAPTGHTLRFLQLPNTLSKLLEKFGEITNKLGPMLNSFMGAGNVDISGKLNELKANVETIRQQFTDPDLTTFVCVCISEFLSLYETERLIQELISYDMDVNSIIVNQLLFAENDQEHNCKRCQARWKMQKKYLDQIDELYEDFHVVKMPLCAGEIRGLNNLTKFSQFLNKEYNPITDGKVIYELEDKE

| Binder | binding [1] | binding (Get3-GFP (S. cerevisiae)) |
| --- | --- | --- |
| FLAG-tagged Get3 (protein, UniProt Q12154 1-354) MDLTVEPNLHSLITSTTHKWIFVGGKGGVGKTTSSCSIAIQMALSQPNKQFLLISTDPAHNLSDAFGEKFGKDARKVTGMNNLSCMEIDPSAALKDMNDMAVSRANNNGSDGQGDDLGSLLQGGALADLTGSIPGIDEALSFMEVMKHIKRQEQGEGETFDTVIFDTAPTGHTLRFLQLPNTLSKLLEKFGEITNKLGPMLNSFMGAGNVDISGKLNELKANVETIRQQFTDPDLTTFVCVCISEFLSLYETERLIQELISYDMDVNSIIVNQLLFAENDQEHNCKRCQARWKMQKKYLDQIDELYEDFHVVKMPLCAGEIRGLNNLTKFSQFLNKEYNPITDGKVIYELEDKE | binds |  |
| Alo1-FLAG (protein, UniProt P54783 1-526) MSTIPFRKNYVFKNWAGIYSAKPERYFQPSSIDEVVELVKSARLAEKSLVTVGSGHSPSNMCVTDEWLVNLDRLDKVQKFVEYPELHYADVTVDAGMRLYQLNEFLGAKGYSIQNLGSISEQSVAGIISTGSHGSSPYHGLISSQYVNLTIVNGKGELKFLDAENDPEVFKAALLSVGKIGIIVSATIRVVPGFNIKSTQEVITFENLLKQWDTLWTSSEFIRVWWYPYTRKCVLWRGNKTTDAQNGPAKSWWGTKLGRFFYETLLWISTKIYAPLTPFVEKFVFNRQYGKLEKSSTGDVNVTDSISGFNMDCLFSQFVDEWGCPMDNGLEVLRSLDHSIAQAAINKEFYVHVPMEVRCSNTTLPSEPLDTSKRTNTSPGPVYGNVCRPFLDNTPSHCRFAPLENVTNSQLTLYINATIYRPFGCNTPIHKWFTLFENTMMVAGGKPHWAKNFLGSTTLAAGPVKKDTDYDDFEMRGMALKVEEWYGEDLKKFRKIRKEQDPDNVFLANKQWAIINGIIDPSELSD |  | no binding |

More lines, now with the values ahead:

| binding [1] | binding (Get3-GFP (S. cerevisiae)) | Binder |
| --- | --- | --- |
|  | binds | Oac1-FLAG (protein, UniProt P32332 1-324) MSSDNSKQDKQIEKTAAQKISKFGSFVAGGLAACIAVTVTNPIELIKIRMQLQGEMSASAAKVYKNPIQGMAVIFKNEGIKGLQKGLNAAYIYQIGLNGSRLGFYEPIRSSLNQLFFPDQEPHKVQSVGVNVFSGAASGIIGAVIGSPLFLVKTRLQSYSEFIKIGEQTHYTGVWNGLVTIFKTEGVKGLFRGIDAAILRTGAGSSVQLPIYNTAKNILVKNDLMKDGPALHLTASTISGLGVAVVMNPWDVILTRIYNQKGDLYKGPIDCLVKTVRIEGVTALYKGFAAQVFRIAPHTIMCLTFMEQTMKLVYSIESRVLGHN |
|  | no binding | Tom70 (protein, UniProt P07213 1-617) MKSFITRNKTAILATVAATGTAIGAYYYYNQLQQQQQRGKKNTINKDEKKDTKDSQKETEGAKKSTAPSNPPIYPVSSNGEPDFSNKANFTAEEKDKYALALKDKGNQFFRNKKYDDAIKYYNWALELKEDPVFYSNLSACYVSVGDLKKVVEMSTKALELKPDYSKVLLRRASANEGLGKFADAMFDLSVLSLNGDFNDASIEPMLERNLNKQAMSKLKEKFGDIDTATATPTELSTQPAKERKDKQENLPSVTSMASFFGIFKPELTFANYDESNEADKELMNGLSNLYKRSPESYDKADESFTKAARLFEEQLDKNNEDEKLKEKLAISLEHTGIFKFLKNDPLGAHEDIKKAIELFPRVNSYIYMALIMADRNDSTEYYNYFDKALKLDSNNSSVYYHRGQMNFILQNYDQAGKDFDKAKELDPENIFPYIQLACLAYRENKFDDCETLFSEAKRKFPEAPEVPNFFAEILTDKNDFDKALKQYDLAIELENKLDGIYVGIAPLVGKATLLTRNPTVENFIEATNLLEKASKLDPRSEQAKIGLAQMKLQQEDIDEAITLFEESADLARTMEEKLQAITFAEAAKVQQRIRSDPVLAKKIQETLAKLREQGLM |
